Source: PMC5671597

Assays:
Test in all cases: two-hybrid; yeast strain AH109, pGBKT7 and pGADT7 vectors; growth on SD/-Ade-His-Leu-Trp at 30°C and colour development with X-α-Gal
[1] = target: PsoSGT1, yeast two-hybrid fusion (Prunus sogdiana)
[2] = target: PsoHSP90-1, yeast two-hybrid fusion (Prunus sogdiana)
[3] = target: PsoRAR1, yeast two-hybrid fusion (Prunus sogdiana)
[4] = target: PsoHSP83, yeast two-hybrid fusion (Prunus sogdiana)
[5] = target: PsoHSP90-2, yeast two-hybrid fusion (Prunus sogdiana)
[6] = target: PsoRPM2 (P. sogdiana RESIST PATHOGEN M. incognita), yeast two-hybrid fusion (Prunus sogdiana)

| Substance | binding [1] | binding [2] | binding [6] | also measured |
| --- | --- | --- | --- | --- |
| PsoHSP90-2, yeast two-hybrid fusion (from UniProt A0A290YK42) | no binding |  |  |  |
| PsoRAR1, yeast two-hybrid fusion (from UniProt A0A290YK86) | binds | binds |  |  |
| PsoRPM2 (P. sogdiana RESIST PATHOGEN M. incognita), yeast two-hybrid fusion (from UniProt A0A167NLE0) | binds | binds |  | binding [3]: no binding |
| PsoHSP83, yeast two-hybrid fusion (from UniProt A0A290YK62) | no binding |  |  |  |
| PsoHSP90-1, yeast two-hybrid fusion (from UniProt A0A290YK21) | binds |  | binds | binding [4]: no binding; binding [5]: no binding |
| PsoSGT1, yeast two-hybrid fusion (from UniProt A0A290YK60) |  |  | binds |  |

No constants are given. Whether binding was seen depends on the method and setting. For part of these data: Binding calls can cover weak binding; strength is not graded here.
